Consider 6 molecules from article PMC8764063.

Protein sequences, listed by entry. Tags and fused reporters are not part of them. Lines headed by an entry give the natural chain unless they say otherwise; changes in a name come on top. Chains listed by the source or under a name are the forms on record and can include a tag or linker.
UniProt P09874: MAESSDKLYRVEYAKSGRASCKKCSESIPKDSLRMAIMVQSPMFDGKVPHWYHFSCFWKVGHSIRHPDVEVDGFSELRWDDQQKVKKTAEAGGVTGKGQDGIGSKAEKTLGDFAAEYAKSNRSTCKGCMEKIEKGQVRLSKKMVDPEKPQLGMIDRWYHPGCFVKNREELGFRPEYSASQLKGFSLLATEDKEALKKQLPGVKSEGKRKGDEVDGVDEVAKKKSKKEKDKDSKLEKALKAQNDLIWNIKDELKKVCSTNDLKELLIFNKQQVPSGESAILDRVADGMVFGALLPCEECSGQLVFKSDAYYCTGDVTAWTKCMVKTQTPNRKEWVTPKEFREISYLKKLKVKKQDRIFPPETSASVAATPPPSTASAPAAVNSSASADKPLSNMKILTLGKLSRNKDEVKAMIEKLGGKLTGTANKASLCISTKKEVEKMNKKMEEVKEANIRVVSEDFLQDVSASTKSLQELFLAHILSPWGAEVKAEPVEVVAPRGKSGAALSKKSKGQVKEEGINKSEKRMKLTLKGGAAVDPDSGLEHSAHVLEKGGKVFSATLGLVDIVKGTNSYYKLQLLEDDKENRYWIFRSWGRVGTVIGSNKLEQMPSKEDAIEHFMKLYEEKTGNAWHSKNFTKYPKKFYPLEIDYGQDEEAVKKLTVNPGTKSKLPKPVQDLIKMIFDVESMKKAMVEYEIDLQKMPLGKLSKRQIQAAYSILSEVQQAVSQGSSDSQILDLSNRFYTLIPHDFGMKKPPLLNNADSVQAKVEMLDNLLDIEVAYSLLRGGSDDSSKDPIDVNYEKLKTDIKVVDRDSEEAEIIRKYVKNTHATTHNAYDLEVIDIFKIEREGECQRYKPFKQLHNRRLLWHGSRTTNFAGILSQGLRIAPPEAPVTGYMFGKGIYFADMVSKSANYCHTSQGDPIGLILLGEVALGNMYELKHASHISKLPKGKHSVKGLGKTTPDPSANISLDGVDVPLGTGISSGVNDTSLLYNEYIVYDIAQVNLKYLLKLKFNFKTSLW
HA-tagged mutant tPARP1 (HA-mtPARP1, tPARP1 E988A) (P09874, form named): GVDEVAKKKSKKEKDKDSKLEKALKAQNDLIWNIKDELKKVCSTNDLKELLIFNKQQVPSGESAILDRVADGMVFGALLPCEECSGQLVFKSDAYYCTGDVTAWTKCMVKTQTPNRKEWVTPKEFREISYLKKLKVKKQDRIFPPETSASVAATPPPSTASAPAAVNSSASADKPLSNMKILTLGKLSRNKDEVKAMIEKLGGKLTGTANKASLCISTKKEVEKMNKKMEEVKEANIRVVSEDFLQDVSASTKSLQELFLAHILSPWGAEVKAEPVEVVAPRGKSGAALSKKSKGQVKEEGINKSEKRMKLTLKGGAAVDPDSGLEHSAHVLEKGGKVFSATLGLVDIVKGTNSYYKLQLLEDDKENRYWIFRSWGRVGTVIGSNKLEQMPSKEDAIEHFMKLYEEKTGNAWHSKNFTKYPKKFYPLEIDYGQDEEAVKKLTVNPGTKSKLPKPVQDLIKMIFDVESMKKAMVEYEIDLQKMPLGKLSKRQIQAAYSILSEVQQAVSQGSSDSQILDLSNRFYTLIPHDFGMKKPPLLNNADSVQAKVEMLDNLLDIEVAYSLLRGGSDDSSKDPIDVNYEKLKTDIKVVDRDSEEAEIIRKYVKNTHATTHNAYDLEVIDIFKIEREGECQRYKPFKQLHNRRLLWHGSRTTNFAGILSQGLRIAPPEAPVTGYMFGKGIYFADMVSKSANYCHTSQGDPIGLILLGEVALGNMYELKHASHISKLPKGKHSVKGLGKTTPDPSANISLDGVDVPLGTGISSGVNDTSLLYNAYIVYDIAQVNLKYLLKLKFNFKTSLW
UniProt Q9Y530: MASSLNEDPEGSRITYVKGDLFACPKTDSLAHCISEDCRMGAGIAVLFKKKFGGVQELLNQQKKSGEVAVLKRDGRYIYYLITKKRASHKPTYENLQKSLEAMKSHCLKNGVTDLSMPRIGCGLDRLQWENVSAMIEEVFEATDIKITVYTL
HA-tagged mutant TARG1 (HA-mTARG1) (Q9Y530, form named): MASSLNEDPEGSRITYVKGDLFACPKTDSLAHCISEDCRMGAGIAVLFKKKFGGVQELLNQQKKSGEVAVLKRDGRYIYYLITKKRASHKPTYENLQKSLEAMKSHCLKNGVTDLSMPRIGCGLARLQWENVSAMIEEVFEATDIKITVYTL

Assay [1] deals with HA-tagged full-length PARP1 with the E988A mutation (mPARP1) (human) (UniProt P09874). Nature of the assay: co-IP; mPARP1 expressed in U2OS PARP1-null cells, with or without 5 μg/mL poly(dA-dT) induction for 6 h (caspase cleavage to mtPARP1); endogenous POLR3A, POLR3B, POLR3F.
For assay [2], the target named is mtPARP1 generated in cells by caspase-mediated cleavage of mPARP1 (human) (UniProt P09874). Described as above.
Assay [3] has as its target HA-tagged full-length PARP1 with the E988A mutation (mPARP1) (human) (UniProt P09874). Nature of the assay: co-IP; HA-tagged mtPARP1 or full-length mPARP1 ectopically expressed in U2OS-PARP1 knockout cells; IP with IgG as a negative control; POLR3A, POLR3B and POLR3F blotted.
Assay [4] addresses HA-tagged mutant tPARP1 (HA-mtPARP1, tPARP1 E988A) (human) (UniProt P09874). The assay is described as above.
Assay [5] has the same target. The assay is described as follows: co-IP; myc-tagged Pol III subunit and HA-tagged protein co-transfected in U2OS-PARP1 knockout cells; NETN100 lysate, antibody and beads 2 h at 4 °C; western blotting.
The target of assay [6] is HA-tagged mutant TARG1 (HA-mTARG1) (UniProt Q9Y530). Described as above.
In assay [7] the target is T1, POLR3F (human (endogenous in U2OS)), Q9H1D9.
T1 chain: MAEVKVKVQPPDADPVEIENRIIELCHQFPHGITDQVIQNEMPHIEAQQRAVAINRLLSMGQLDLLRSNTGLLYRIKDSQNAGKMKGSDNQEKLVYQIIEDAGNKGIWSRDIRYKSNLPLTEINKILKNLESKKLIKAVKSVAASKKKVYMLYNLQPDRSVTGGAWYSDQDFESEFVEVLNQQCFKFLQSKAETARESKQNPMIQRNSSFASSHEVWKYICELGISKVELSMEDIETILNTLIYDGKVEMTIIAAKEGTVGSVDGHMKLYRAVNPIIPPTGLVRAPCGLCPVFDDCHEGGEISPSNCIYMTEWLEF
The assay is described as follows: co-IP; IP of POLR3F from the cytoplasmic fraction of U2OS cells treated with or without poly(dA-dT) (5 ug/ml, six hours); subunits detected by immunoblot. As to conditions: remark: other sources report otherwise. In general terms: In western blotting, separated proteins are transferred to a membrane and probed.

Assay [8] addresses T2, FLAG-POLR3F (human), Q9H1D9.
T2 chain: T1 chain
The assay is described as follows: co-IP; Pol III complex purified by FLAG IP from U2OS cells stably expressing FLAG-POLR3F, with or without ADP-ribosylation by tPARP1 in vitro; subunits detected by Western blot with antibodies against the individual subunits; IgG as control IP. As to conditions: remark: other sources report otherwise.

For assay [9], the target named is T3, FLAG-POLR3F, Q9H1D9.
T3 chain: T1 chain
Nature of the assay: co-IP; Pol III complex from U2OS cells stably expressing FLAG-POLR3F: NETN100 lysate (S100), FLAG-M2 beads at 4 °C, four washes, elution with 100 µg/mL FLAG peptide, dialysis against PBS, then POLR3G antibody 1 h; with or without ADP-ribosylation in vitro or poly(dA-dT) stimulation of the cells. As to conditions: remark: other sources report otherwise.

Results are given in words; binding and its absence hold for the method and conditions named. In cells and extracts the contact can be indirect. Some entries that bind do so weakly or less than the wild type. For some assays here: Sequences can lack the tags named with a protein.

For “POLR3F, subunit of the RNA polymerase III (Pol III) complex, endogenous (from UniProt Q9H1D9 1-316)”, the binding result in assay [1] is “no binding”; in [2] it was “binds”; in assay [3] it was “no binding”; in assay [4], “binds”.

B1: POLR3B, subunit of the RNA polymerase III (Pol III) complex, endogenous (protein, UniProt Q9NW08 1-1133)
chain: MDVLAEEFGNLTPEQLAAPIPTVEEKWRLLPAFLKVKGLVKQHIDSFNYFINVEIKKIMKANEKVTSDADPMWYLKYLNIYVGLPDVEESFNVTRPVSPHECRLRDMTYSAPITVDIEYTRGSQRIIRNALPIGRMPIMLRSSNCVLTGKTPAEFAKLNECPLDPGGYFIVKGVEKVILIQEQLSKNRIIVEADRKGAVGASVTSSTHEKKSRTNMAVKQGRFYLRHNTLSEDIPIVIIFKAMGVESDQEIVQMIGTEEHVMAAFGPSLEECQKAQIFTQMQALKYIGNKVRRQRMWGGGPKKTKIEEARELLASTILTHVPVKEFNFRAKCIYTAVMVRRVILAQGDNKVDDRDYYGNKRLELAGQLLSLLFEDLFKKFNSEMKKIADQVIPKQRAAQFDVVKHMRQDQITNGMVNAISTGNWSLKRFKMDRQGVTQVLSRLSYISALGMMTRISSQFEKTRKVSGPRSLQPSQWGMLCPSDTPEGEACGLVKNLALMTHITTDMEDGPIVKLASNLGVEDVNLLCGEELSYPNVFLVFLNGNILGVIRDHKKLVNTFRLMRRAGYINEFVSISTNLTDRCVYISSDGGRLCRPYIIVKKQKPAVTNKHMEELAQGYRNFEDFLHESLVEYLDVNEENDCNIALYEHTINKDTTHLEIEPFTLLGVCAGLIPYPHHNQSPRNTYQCAMGKQAMGTIGYNQRNRIDTLMYLLAYPQKPMVKTKTIELIEFEKLPAGQNATVAVMSYSGYDIEDALVLNKASLDRGFGRCLVYKNAKCTLKRYTNQTFDKVMGPMLDAATRKPIWRHEILDADGICSPGEKVENKQVLVNKSMPTVTQIPLEGSNVPQQPQYKDVPITYKGATDSYIEKVMISSNAEDAFLIKMLLRQTRRPEIGDKFSSRHGQKGVCGLIVPQEDMPFCDSGICPDIIMNPHGFPSRMTVGKLIELLAGKAGVLDGRFHYGTAFGGSKVKDVCEDLVRHGYNYLGKDYVTSGITGEPLEAYIYFGPVYYQKLKHMVLDKMHARARGPRAVLTRQPTEGRSRDGGLRLGEMERDCLIGYGASMLLLERLMISSDAFEVDVCGQCGLLGYSGWCHYCKSSCHVSSLRIPYACKLLFQELQSMNIIPRLKLSKYNE
For B1, the binding result is reported as “no binding” in assay [1], “binds” in [2], “no binding” in [3] and “binds” in [4].

B2: myc-POLR3B (protein, UniProt Q9NW08 1-1133)
chain: B1 chain
Consider B2, for which the binding result in assay [5] and in assay [6] was “binds” throughout.

B3: POLR3A, subunit of the RNA polymerase III (Pol III) complex, endogenous (protein, UniProt O14802 1-1390)
chain: MVKEQFRETDVAKKISHICFGMKSPEEMRQQAHIQVVSKNLYSQDNQHAPLLYGVLDHRMGTSEKDRPCETCGKNLADCLGHYGYIDLELPCFHVGYFRAVIGILQMICKTCCHIMLSQEEKKQFLDYLKRPGLTYLQKRGLKKKISDKCRKKNICHHCGAFNGTVKKCGLLKIIHEKYKTNKKVVDPIVSNFLQSFETAIEHNKEVEPLLGRAQENLNPLVVLNLFKRIPAEDVPLLLMNPEAGKPSDLILTRLLVPPLCIRPSVVSDLKSGTNEDDLTMKLTEIIFLNDVIKKHRISGAKTQMIMEDWDFLQLQCALYINSELSGIPLNMAPKKWTRGFVQRLKGKQGRFRGNLSGKRVDFSGRTVISPDPNLRIDEVAVPVHVAKILTFPEKVNKANINFLRKLVQNGPEVHPGANFIQQRHTQMKRFLKYGNREKMAQELKYGDIVERHLIDGDVVLFNRQPSLHKLSIMAHLARVKPHRTFRFNECVCTPYNADFDGDEMNLHLPQTEEAKAEALVLMGTKANLVTPRNGEPLIAAIQDFLTGAYLLTLKDTFFDRAKACQIIASILVGKDEKIKVRLPPPTILKPVTLWTGKQIFSVILRPSDDNPVRANLRTKGKQYCGKGEDLCANDSYVTIQNSELMSGSMDKGTLGSGSKNNIFYILLRDWGQNEAADAMSRLARLAPVYLSNRGFSIGIGDVTPGQGLLKAKYELLNAGYKKCDEYIEALNTGKLQQQPGCTAEETLEALILKELSVIRDHAGSACLRELDKSNSPLTMALCGSKGSFINISQMIACVGQQAISGSRVPDGFENRSLPHFEKHSKLPAAKGFVANSFYSGLTPTEFFFHTMAGREGLVDTAVKTAETGYMQRRLVKSLEDLCSQYDLTVRSSTGDIIQFIYGGDGLDPAAMEGKDEPLEFKRVLDNIKAVFPCPSEPALSKNELILTTESIMKKSEFLCCQDSFLQEIKKFIKGVSEKIKKTRDKYGINDNGTTEPRVLYQLDRITPTQVEKFLETCRDKYMRAQMEPGSAVGALCAQSIGEPGTQMTLKTFHFAGVASMNITLGVPRIKEIINASKAISTPIITAQLDKDDDADYARLVKGRIEKTLLGEISEYIEEVFLPDDCFILVKLSLERIRLLRLEVNAETVRYSICTSKLRVKPGDVAVHGEAVVCVTPRENSKSSMYYVLQFLKEDLPKVVVQGIPEVSRAVIHIDEQSGKEKYKLLVEGDNLRAVMATHGVKGTRTTSNNTYEVEKTLGIEAARTTIINEIQYTMVNHGMSIDRRHVMLLSDLMTYKGEVLGITRFGLAKMKESVLMLASFEKTADHLFDAAYFGQKDSVCGVSECIIMGIPMNIGTGLFKLLHKADRDPNPPKRPLIFDTNEFHIPLVT
Consider B3, for which the binding entry was “no binding” in [1], “binds” in assay [2], “no binding” in assay [3] and “binds” in assay [4].

B4: POLR3G, O15318 1-223 (protein)
chain: MAGNKGRGRAAYTFNIEAVGFSKGEKLPDVVLKPPPLFPDTDYKPVPLKTGEGEEYMLALKQELRETMKRMPYFIETPEERQDIERYSKRYMKVYKEEWIPDWRRLPREMMPRNKCKKAGPKPKKAKDAGKGTPLTNTEDVLKKMEELEKRGDGEKSDEENEEKEGSKEKSKEGDDDDDDDAAEQEEYDEEEQEEENDYINSYFEDGDDFGADSDDNMDEATY
As to B4, the binding result in [7] and in assay [8] was “binds” throughout.

B5: POLR3G, subunit of the Pol III complex, endogenous, O15318 1-223 (protein)
chain: B4 chain
Turning to B5, in assay [9], the binding result is “binds”.
